Among the data in PMC4124013 are binding values, retold here.

By UniProt entry, the sequences of proteins in these tests, tags left out. Where a name states a change or a piece, a line headed by the entry shows the natural chain unless it says otherwise.
UniProt P63331: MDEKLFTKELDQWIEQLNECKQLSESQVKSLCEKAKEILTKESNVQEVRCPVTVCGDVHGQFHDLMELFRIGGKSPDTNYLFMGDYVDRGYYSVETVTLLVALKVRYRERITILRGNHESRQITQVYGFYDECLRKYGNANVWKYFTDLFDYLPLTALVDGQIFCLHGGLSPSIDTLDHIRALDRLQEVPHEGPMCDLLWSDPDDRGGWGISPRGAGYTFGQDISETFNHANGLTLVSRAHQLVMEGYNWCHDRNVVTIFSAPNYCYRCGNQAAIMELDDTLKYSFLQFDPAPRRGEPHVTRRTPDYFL
UniProt Q7TQN4: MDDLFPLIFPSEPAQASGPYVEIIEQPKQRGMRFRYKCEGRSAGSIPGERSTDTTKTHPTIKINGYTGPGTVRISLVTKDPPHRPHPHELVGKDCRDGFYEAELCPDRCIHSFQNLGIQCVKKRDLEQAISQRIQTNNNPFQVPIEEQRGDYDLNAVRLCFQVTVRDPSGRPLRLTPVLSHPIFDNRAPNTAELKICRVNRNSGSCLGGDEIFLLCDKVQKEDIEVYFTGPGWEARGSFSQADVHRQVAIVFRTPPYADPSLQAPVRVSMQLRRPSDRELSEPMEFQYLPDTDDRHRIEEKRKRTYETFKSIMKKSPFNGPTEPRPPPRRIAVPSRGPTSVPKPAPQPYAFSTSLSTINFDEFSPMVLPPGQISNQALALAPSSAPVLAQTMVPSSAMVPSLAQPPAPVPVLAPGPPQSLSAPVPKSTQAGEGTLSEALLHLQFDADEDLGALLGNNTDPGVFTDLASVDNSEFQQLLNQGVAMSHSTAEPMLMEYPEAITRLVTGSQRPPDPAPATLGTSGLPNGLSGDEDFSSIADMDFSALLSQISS

No constants are given. Whether binding was seen depends on the method and setting. Binding seen in cells or lysates may run through a third protein. A result given as binding can be weak or reduced; the word gives no strength.

The target in the assay is protein phosphatase 2A catalytic subunit (rat (endogenous in primary aortic VSMCs)) (UniProt P63331). The assay is described as follows: co-IP; extracts of rat VSMCs stimulated with LPS (50 μg/ml)/IFN-γ (100 U/ml) for 0-60 min, lysed in IP buffer, pre-cleared with protein A/G-agarose; immunoprecipitated with anti-PP2A-c antibody, blotted with anti-p65 antibody.

“NF-κB subunit p65 (from UniProt Q7TQN4 1-550)”: the binding result is “binds”.
